This is an account of results in US20130149320A1 (CENTRE NATIONAL DE LA RECHERCHE SCIENTIFIQUE, published 2013).

Sequences of proteins named here, by UniProt entry; tags and fusion partners are left off. A change or cut given only in a name is not applied to a line headed by its entry.
UniProt P54198: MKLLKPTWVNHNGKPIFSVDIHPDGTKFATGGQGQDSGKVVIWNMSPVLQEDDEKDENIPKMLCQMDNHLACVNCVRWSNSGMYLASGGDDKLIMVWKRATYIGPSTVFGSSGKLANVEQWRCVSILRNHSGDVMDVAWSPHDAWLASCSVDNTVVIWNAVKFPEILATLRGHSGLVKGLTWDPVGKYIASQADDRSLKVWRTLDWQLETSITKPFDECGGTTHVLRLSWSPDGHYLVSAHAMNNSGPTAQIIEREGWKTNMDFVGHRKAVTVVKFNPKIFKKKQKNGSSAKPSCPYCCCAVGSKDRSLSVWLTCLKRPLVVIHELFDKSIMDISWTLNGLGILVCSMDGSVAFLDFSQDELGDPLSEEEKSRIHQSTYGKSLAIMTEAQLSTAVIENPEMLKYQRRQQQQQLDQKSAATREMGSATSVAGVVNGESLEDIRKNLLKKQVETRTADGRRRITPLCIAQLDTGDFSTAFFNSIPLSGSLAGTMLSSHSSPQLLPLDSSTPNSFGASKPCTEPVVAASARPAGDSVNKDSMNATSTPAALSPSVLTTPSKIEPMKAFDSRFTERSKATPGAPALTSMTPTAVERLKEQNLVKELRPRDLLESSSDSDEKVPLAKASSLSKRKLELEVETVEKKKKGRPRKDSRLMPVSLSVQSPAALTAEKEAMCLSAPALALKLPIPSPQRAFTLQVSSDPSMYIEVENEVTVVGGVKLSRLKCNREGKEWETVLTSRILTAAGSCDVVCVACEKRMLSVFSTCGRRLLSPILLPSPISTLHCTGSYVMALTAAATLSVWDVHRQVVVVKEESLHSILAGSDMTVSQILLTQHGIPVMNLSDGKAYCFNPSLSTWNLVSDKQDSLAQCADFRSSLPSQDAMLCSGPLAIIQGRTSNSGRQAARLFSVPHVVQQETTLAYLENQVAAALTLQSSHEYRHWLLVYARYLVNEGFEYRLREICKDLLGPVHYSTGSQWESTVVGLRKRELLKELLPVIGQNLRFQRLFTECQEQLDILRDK
UniProt Q69DB9: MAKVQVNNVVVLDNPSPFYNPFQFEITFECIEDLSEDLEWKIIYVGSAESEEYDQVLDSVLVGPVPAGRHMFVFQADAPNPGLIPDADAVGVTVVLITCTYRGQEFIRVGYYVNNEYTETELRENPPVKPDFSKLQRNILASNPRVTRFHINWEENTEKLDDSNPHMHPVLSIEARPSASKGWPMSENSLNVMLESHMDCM
UniProt Q9Y294: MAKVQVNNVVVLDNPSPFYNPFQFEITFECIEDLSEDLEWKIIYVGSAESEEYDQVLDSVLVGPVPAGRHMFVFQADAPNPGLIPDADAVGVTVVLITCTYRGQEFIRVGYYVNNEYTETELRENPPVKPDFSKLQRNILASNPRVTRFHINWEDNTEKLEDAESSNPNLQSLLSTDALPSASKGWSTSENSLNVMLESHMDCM

One test deals with human HIRA (human) (UniProt P54198). Description: co-immunoprecipitation from HeLa S3 total cell extracts, Western blot.
Test [1] has as its target Asf1 from Xenopus laevis (endogenous, high speed egg extract) (Xenopus laevis) (UniProt Q69DB9). Description: GST pull-down on Xenopus egg extract (HSE), Western blot.

Results are given in words; binding and its absence hold for the method and conditions named. Binding seen in cells or lysates may run through a third protein. Some binding calls cover weakened binding; strength is not graded here.

Regarding “human Asf1a (Anti-silencing function 1a) (from UniProt Q9Y294 1-204)”, the binding result with human HIRA (human) was “binds”.

For the substance “recombinant GST HIRA B-domain (Xenopus laevis HIRA amino acid 435 to 480) (from UniProt P54198 435-480)”, in test [1], the binding entry is given as “binds”.
